# Experimental data as given in PubChem BioAssay AID1458 (National Center for Advancing Translational Sciences (NCATS), 2008).
# The campaign covered roughly 210,000 compounds. About 5,900 (2.8%) were called active. Another 5% or so got no clear call; they are omitted. Calls follow the shape of the dose curve; as a rule, active = well fitted activation curve with a large enough effect; inconclusive = small, poorly fitted or top-dose-only effect; inactive = no such curve, though single readings can be large or run the other way. Only a part is listed here, and it is no random draw. Entries without a call were filed so in the source.
# Assay: qHTS Assay for Enhancers of SMN2 Splice Variant Expression; also: nearly all actives have a fitted effect of over 55% in size; as to activity change, positive = activation: % of control where 0% means no effect
# Conditions: HEK293 SMN2-luciferase splicing reporter, luminescence, 30-36 h; activity change, positive = activation: at 46.1 µM (top of the series) unless noted
# Text: NIH Chemical Genomics Center [NCGC] NIH Molecular Libraries Probe Production centers Network [MLPCN] MLPCN Grant: R03 MH084179-01 Assay Submitter (PI): Elliot Androphy NCGC Assay Overview: Spinal muscular atrophy (SMA) is caused by insufficient levels of the survival motor neuron protein SMN. The SMN locus on chromosome 5q13 contains two inverted copies of SMN called SMN1 and SMN2 which are 99% identical at the amino acid level. SMN1 is a fully functional protein and SMN2 skips exon 7 90% of the time. Skipping of exon 7 produces non-functional protein product. 10% of the SMN2 protein includes exon 7 and is fully functional. In the SMA disease state, mutations in the SMN1 locus are the cause of the disease state. Because only 10% of SMN2 is of the fully functional form, it is not sufficient to overcome the deficiency produced by the loss of the SMN1 product. A therapy that either increase the amount of SMN2 product made or to increase the inclusion of exon 7 has been proposed for the treatment of SMA. We have designed an assay to identify small molecules that can increase the amount of functional SMN2 product by appending a luciferase reporter gene after the native SMN2 gene, such that inclusion of exon 7 in the expressed product places the luciferase sequence in frame, thus generating functional luciferase enzyme.
# NCGC Assay Protocol Summary: This screen utilizes a luciferase reporter gene assay, combining the promoter and splicing based cassettes in tandem with the major portion of the native SMN2 cDNA, and then transfected into HEK293 cells. Compounds that increase luciferase signal presumably enhance expression of the functional SMN2 splice variant. Passaging media contained DMEM w/ glutamax (+phenol red) 10% FCS, 1x pen/strep, 200 ug/ml hygro, 1x sodium pyruvate. Assay media contained DMEM w/ glutamax (-phenol red) 10% FCS, 1x pen strep, 1x pyruvate Sequence, Parameter, Value, Description (1) Cells, […], 2000 cells/well, 1536 TC treated White solid bottom plate (2) Time, 10-12 hours, 37C 5% CO2 (3) Compound, 23 nl, MLSMR Library (4) Control Compound, 23 nL, Sodium butyrate st 4.5mM (final) conc (5) Time, 30-36 hours, 37C 5% CO2 (6) Reagent, 3 ul, One Glo (TM) from Promega (7) Time, 5-15 minutes, Room temp (8) Detector, Viewlux: luminescent read, 60 second integration, high speed 2x binning Keywords: Spinal muscular atrophy, SMA, SMN2, high throughput screening, MLSMR, MLPCN, NIH Roadmap, qHTS and NCGC
# Potency is read from the fitted curve at half-maximal effect.
Structure (SMILES),Potency,"activity change, positive = activation"
N#C/C(=C/c1ccc(N2CCCCCC2)o1)c1cccc(F)c1,active: 12.6 µM,–
Cc1cc(=O)oc(C)c1C(=O)Nc1c(C)n(C)n(-c2ccccc2)c1=O,–,38.5%
CCOC(=O)c1c(NC(=O)C2CCN(S(=O)(=O)c3cccs3)CC2)sc(C)c1C,–,49.1%
Cc1cc(C(=O)CSc2nc3ccccc3c(=O)n2C)c(C)n1Cc1ccc2c(c1)OCO2,–,inactive: -58.8%
COc1ccc(CCNc2oc(Cc3cccc4ccccc34)nc2C#N)cc1OC,–,inactive: -82.9%
O=C(/C=C/c1cccs1)NC(=S)NNC(=O)c1ccccc1O,–,inactive: -69.9%
COc1ccc(C2C=C(c3ccc(F)cc3)NC(=S)N2)cc1OC (stereo not drawn),–,inactive: -33.5%
COc1ccc(-n2c(=O)cc(N3CCN(c4ccccc4F)CC3)[nH]c2=O)cc1,–,34.2%
NC(=O)N/N=C/c1cc(Br)ccc1OCC(=O)NCc1ccccc1,–,33%
Cc1c(N=C2NC(=O)C(CC(=O)Nc3ccc(Cl)cc3)S2)c(=O)n(-c2ccccc2)n1C (stereo not drawn),–,33.1%
O=C(NCCCN1CCN(Cc2ccccc2)CC1)C1CCN(c2nnc(-n3cccc3)s2)CC1,–,inactive: -58.3%
Cc1cccc(NC(=O)c2cccc(NS(=O)(=O)c3ccc(Cl)cc3)c2)c1,–,-42.6%
O=C(Nc1nccs1)c1cc2c(s1)-c1ccccc1OC2,active: 10 µM,–
Cc1ccc(-c2nc3ccccc3[nH]2)cc1NC(=O)c1ccco1,–,42.2%
Cc1ccc(NC2Nc3cc(C)nn3S2)c(C)c1 (stereo not drawn),–,81.3%
CCCCNC(=O)c1cc2n(n1)C(C(F)(F)F)CC(c1ccccc1)N2 (stereo not drawn),–,30.7%
CC(Oc1ccc(Cl)cc1Cl)C(=O)NC(=S)N1CCc2ccccc21 (stereo not drawn),–,-46%
Cc1cccn2c(=O)c3cc(C#N)c(=O)n(-c4nnc(SCc5ccc(F)cc5)s4)c3nc12,–,22.4%
O=C(CCCN1C(=O)/C(=C/c2ccccc2Cl)SC1=S)Nc1ccccn1,–,-76.6%
CCOC(=O)CSC1=Nc2ccccc2C2=NC(CC(=O)NCc3cccs3)C(=O)N12 (stereo not drawn),–,25.5%
N#Cc1ccc(CN2CCC3(CC2)CCN(S(=O)(=O)c2ccccc2)CC3)cc1,–,inactive: -71.5%
COc1cccc(NC(=O)/C(C#N)=C/c2c(C)n(Cc3ccccc3)c3ccccc23)c1,–,inactive: -51.5%
Cc1cccc(-c2nc3cc([N+](=O)[O-])ccc3o2)c1,active: 15.8 µM,–
Cc1nnc(SCC(=O)Nc2ccc(Oc3ccccc3)cc2)n1N,–,35.6%
N#CCSc1nc2[nH]ncc2c(=O)n1-c1ccccc1Br,–,-72.1%
CCOc1cc(/C=C2/C(=O)ON=C2C)ccc1OCc1ccccc1F,–,-56.8%
Cc1ccc(C)c(S(=O)(=O)N2C(=S)NC(=O)C2CC(C)C)c1 (stereo not drawn),–,23.4%

# Compounds shown so far containing an NH in an aromatic ring, in the order listed:
Structure (SMILES),Potency,"activity change, positive = activation"
COc1ccc(-n2c(=O)cc(N3CCN(c4ccccc4F)CC3)[nH]c2=O)cc1,–,34.2%
Cc1ccc(-c2nc3ccccc3[nH]2)cc1NC(=O)c1ccco1,–,42.2%
N#CCSc1nc2[nH]ncc2c(=O)n1-c1ccccc1Br,–,-72.1%

# (more compounds)

Structure (SMILES),Potency,"activity change, positive = activation"
CC1CCN(C(=O)COC(=O)[C@H](C)NS(=O)(=O)/C=C/c2ccccc2)CC1,–,48.7%
O=C(CN1C(=O)NC(Cc2c[nH]c3ccccc23)C1=O)Nc1cccc(S(=O)(=O)N2CCCCCC2)c1 (stereo not drawn),–,inactive: -36.6%
Cc1ccc(S(=O)(=O)N2CCN(CC(=O)Nc3ccc4c(c3)CCC4)CC2)cc1C,–,-48%
COC(=O)c1ccc(C(=O)OC)c(NC(=O)COC(=O)C23CC4CC(CC(O)(C4)C2)C3)c1,–,39.7%
CCOCCCNC(=O)c1ccccc1Br,–,37.1%
COC(=O)CCC(=O)Nc1cccc(C(=O)Nc2cccc(Cl)c2)c1,–,15.6%
O=C(CCCn1c(=S)[nH]c2cc3c(cc2c1=O)OCO3)N1CCN(c2ccc(Cl)cc2)CC1,–,inactive: -60%
Cc1nc(NCc2ccccn2)c2ccccc2n1,–,-75.7%
CCSc1ncnc2c1sc1nc3c(cc12)COC(C)(C)C3,active: 12.6 µM,–
N#C/C(=C1\CCCN1)c1nc(-c2ccccc2)cs1,–,40%
c1ccc2[nH]c(SCc3cn4ccccc4n3)nc2c1,–,38.6%
CC1(C)CC(=O)C=C(NCc2ccco2)C1,–,27.3%
Nc1ncnc2nc(SCc3ccc(Cl)cc3Cl)[nH]c12,–,inactive: -31.2%
O=C(/C=C/c1ccco1)NCCc1ccccc1,–,112%
COc1cc(C2c3c(oc4ccccc4c3=O)C(=O)N2CCN2CCOCC2)cc(OC)c1OC (stereo not drawn),–,31.2%
CC(C)(C)C(=O)CSc1nc2c(c(-c3cccs3)c1C#N)CCC2,–,-2.6%
Brc1cccc(-c2nnc3n2CCCCC3)c1,–,38.5%
O=C1CN(C(=O)c2ccccc2F)c2ccccc2N1,–,39.7%
Cc1ccc(C(=O)Nc2ccc3c(c2)OCCO3)o1,–,30.1%
CN(C)c1ccc(/C=C2/NC(=O)NC2=O)cc1,–,38%
O=C(CSc1nnc(NC2CCCCC2)s1)Nc1ccc2c(c1)C(=O)c1ccccc1C2=O,active: 11.2 µM,–
COc1ccccc1OCC(=O)Nc1cccc(-c2nnc(-c3ccco3)o2)c1,active: 17.8 µM,–
CC1(C)Cc2c(sc3nc(N/N=C/c4ccccc4)[nH]c(=O)c23)CO1,–,inactive: -40.3%
O=C(NCc1ccoc1)c1ccc(NC(=O)c2ccccc2Cl)cc1,–,19.1%
CCOc1ccc2nc3sc(C(=O)N4CCOCC4)c(N)c3cc2c1,active: 1.26 µM,–
CC(=O)N1CCc2cc(S(=O)(=O)NCCC(=O)NC3CCN(Cc4ccccc4)CC3)ccc21,–,21.1%
